This is an account of results in patent US20250250582A1, “Plant Cells and Plants Modified to Increase Herbicide Resistance and Stress Tolerance and Methods of Using the Same” (The Board of Trustees of the University of Arkansas, priority 2018, published 2025).

Molecules are shown by their SMILES. No dose or concentration is given here for some results.

This data set has as its system susceptible E. colona (ECO-S). The data set is described as follows: Gene ontology enrichment analysis following herbicide treatment in ECO-S. As to conditions: 24 h. In kind it is in vivo, Echinochloa colona.
Consider `O=C(O)c1c(Cl)ccc2cc(Cl)cnc12` [quinclorac], for which the “enriched gene ontology terms unique to the herbicide” value (from here on “enriched gene ontology terms unique”) is recorded as 14. Consider `CP(=O)(O)CCC(N)C(=O)O` (stereo not shown) [glufosinate], for which the “enriched gene ontology terms unique” value is reported as 68.

Regarding `CCC(=O)Nc1ccc(Cl)c(Cl)c1` [propanil], the “enriched gene ontology terms unique” value is reported as 19. Under `C[C@@H](Oc1ccc(Oc2ccc(C#N)cc2F)cc1)C(=O)O` [cyhalofop] stands 26.
